From PubChem BioAssay AID328 (DTP/NCI, 2004)
The list shows only some results of the screen, not a fair sample: it is rich in T/C values a quarter to a half above the control, in often repeated tests (any T/C) and in doses without a T/C. Other doses and runs of a compound stand elsewhere. T/C: endpoint of the treated group in % of that of the vehicle group. Some doses have a count of surviving animals in place of a T/C: the source holds a T/C of zero for them, seemingly a mark for toxic or unscored doses. Some doses without a T/C left all or most animals alive at the check, yet need not have been tolerated: the source hardly ever lists a survival T/C far under the control, and the zero likely stands for such cases as well. Counts of survivors are from the toxicity check (mostly the fifth day) where no day follows; animals may have died later. Schedules are NCI's codes, taken here to give the interval after Q, in days (D) or hours (H), and the number of doses after X. For survival time, the PubChem record calls one and a half times the control and up active, and a quarter to a half above the control has no call in these data; cut-offs in other NCI protocols can differ. Some T/C values are followed by the survivors on the day toxicity was checked, most often the fifth; without a count, all were alive then.

Tested on: BDF1 mice, P388 leukemia ip, median survival T/C
Assay: NCI In Vivo Anticancer Drug Screen. Data for tumor model P388 Leukemia (intraperitoneal) in B6D2F1 (BDF1) mice
Conditions: T/C endpoint: median survival time, higher T/C = longer survival
In short: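 Read-out is survival of treated animals expressed relative to the vehicle group, as a T/C ratio.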

[1] = dose: 100.0 mg/kg/injection, schedule: Q01DX009 (ip), vehicle: saline
[2] = dose: 400.0 mg/kg/injection, schedule: Q04DX003 (ip), vehicle: saline
[3] = dose: 200.0 mg/kg/injection, schedule: Q01DX009 (ip), vehicle: saline with Tween-80
[4] = dose: 4.0 mg/kg/injection, schedule: Q01DX009 (ip), vehicle: Klucel (hydroxypropylcellulose) (HPC)

OC1CC2CCC(C1)N2CCCN1c2ccccc2Sc2ccc(Cl)cc21 (stereo not drawn)
survivor count [1]: 5 of 6
survivor count (dose: 200.0 mg/kg/injection, schedule: Q04DX003 (ip), vehicle: saline): 2 of 6
survivor count [2]: 0 of 6

COc1cc2c(c3c1c(=O)c1cc(OC(C)=O)ccc1n3C)C=CC(C)(C)O2
survivor count (dose: 5.0 mg/kg/injection, schedule: Q01DX009 (ip), vehicle: Klucel (hydroxypropylcellulose) (HPC)): 3 of 6

CCO/C=C1\SC(=S)N(c2ccccc2OC)C1=O
T/C (dose: 132.0 mg/kg/injection, schedule: Q01DX009 (ip), vehicle: saline with Tween-80): 127 % of control
T/C [3]: 136 % of control
T/C (dose: 300.0 mg/kg/injection, schedule: Q01DX009 (ip), vehicle: saline with Tween-80): 136 % of control
survivor count (dose: 400.0 mg/kg/injection, schedule: Q01DX009 (ip), vehicle: Klucel (hydroxypropylcellulose) (HPC)): 5 of 6

O=[N+]([O-])c1ccc(N2CCCC(n3cccc3)C2)c([N+](=O)[O-])c1 (stereo not drawn)
survivor count [3]: 2 of 6

Clc1ccccc1/C=C/C=C1c2ccccc2-c2ccccc21
survivor count (dose: 100.0 mg/kg/injection, schedule: Q01DX009 (ip), vehicle: saline with Tween-80): 5 of 6
survivor count [3]: 6 of 6
survivor count (dose: 400.0 mg/kg/injection, schedule: Q01DX009 (ip), vehicle: saline with Tween-80): 5 of 6

O=[N+]([O-])c1cccc(OCCOc2ccc(S(=O)(=O)F)cc2)c1
survivor count (dose: 200.0 mg/kg/injection, schedule: Q04DX003 (ip), vehicle: saline with Tween-80): 6 of 6

CC(CCc1cccc2ccccc12)(C(=O)O)C(=O)O
survivor count (dose: 400.0 mg/kg/injection, schedule: Q04DX003 (ip), vehicle: saline sonified): 4 of 6

O=C(O)C1OC(n2cc([N+](=O)[O-])c(=O)[nH]c2=O)C(O)C1O (stereo not drawn)
survivor count [3]: 6 of 6

CC(C)(O)/C=C/C(=O)[C@](C)(O)[C@H]1[C@H](O)C[C@@]2(C)[C@@H]3CC=C4[C@@H](C=C(O)C(=O)C4(C)C)[C@]3(C)C(=O)C[C@]12C
survivor count (dose: 12.5 mg/kg/injection, schedule: Q01DX009 (ip), vehicle: Klucel (hydroxypropylcellulose) (HPC)): 30 of 30

O=NNc1ccccn1
T/C (dose: 6.25 mg/kg/injection, schedule: Q01DX009 (ip), vehicle: saline): 125 % of control

O=C1C=C(Cl)C(=O)C(Cl)=C1
survivor count (dose: 12.0 mg/kg/injection, schedule: Q01DX009 (ip), vehicle: Klucel (hydroxypropylcellulose) (HPC)): 2 of 6
survivor count (dose: 25.0 mg/kg/injection, schedule: Q04DX003 (ip), vehicle: Klucel (hydroxypropylcellulose) (HPC)): 1 of 6

CC1(c2ccco2)NC(=O)N(Cl)C1=O (stereo not drawn)
survivor count (dose: 50.0 mg/kg/injection, schedule: Q01DX009 (ip), vehicle: saline): 5 of 6
survivor count [1]: 5 of 6
survivor count (dose: 200.0 mg/kg/injection, schedule: Q01DX009 (ip), vehicle: saline): 6 of 6
survivor count (dose: 400.0 mg/kg/injection, schedule: Q01DX009 (ip), vehicle: saline): 3 of 6

N#[N+]c1cnc([O-])[nH]c1=O
T/C (dose: 1.25 mg/kg/injection, schedule: Q01DX010 (ip), vehicle: saline): 145 % of control
T/C (dose: 2.5 mg/kg/injection, schedule: Q01DX010 (ip), vehicle: saline): 145 % of control

CC(=O)/C=C/c1ccc2c(c1)OCO2
T/C [2]: 138 % of control

COCCCN=C(N)c1ccc(NC(=O)c2ccc(C(=O)Nc3ccc(C(N)=NCCCOC)cc3)cc2)cc1
T/C (dose: 0.33 mg/kg/injection, schedule: Q01DX009 (ip), vehicle: saline with Tween-80): 138 % of control
T/C (dose: 0.75 mg/kg/injection, schedule: Q01DX009 (ip), vehicle: saline with Tween-80): 139 % of control
T/C (dose: 2.66 mg/kg/injection, schedule: Q04DX003 (ip), vehicle: saline with Tween-80): 131 % of control
T/C (dose: 4.4 mg/kg/injection, schedule: Q04DX003 (ip), vehicle: saline with Tween-80): 136 % of control
T/C (dose: 6.0 mg/kg/injection, schedule: Q04DX003 (ip), vehicle: saline with Tween-80): 136 % of control
T/C (dose: 6.6 mg/kg/injection, schedule: Q04DX003 (ip), vehicle: saline with Tween-80): 145 % of control
T/C (dose: 10.0 mg/kg/injection, schedule: Q04DX003 (ip), vehicle: saline with Tween-80): 145 % of control

CC[CH2][Sn]([Cl])([Cl])[CH2]CC
T/C (dose: 1.0 mg/kg/injection, schedule: Q01DX009 (ip), vehicle: Klucel (hydroxypropylcellulose) (HPC)): 136 % of control
T/C (dose: 2.0 mg/kg/injection, schedule: Q01DX009 (ip), vehicle: Klucel (hydroxypropylcellulose) (HPC)): 131 % of control [5 of 6 alive]
T/C [4]: 131 % of control
survivor count [4]: 0 of 6
survivor count (dose: 8.0 mg/kg/injection, schedule: Q01DX009 (ip), vehicle: Klucel (hydroxypropylcellulose) (HPC)): 0 of 6
